Reference: PubChem BioAssay AID2551 (National Center for Advancing Translational Sciences (NCATS), 2010)
About 17,000 (5.5%) of roughly 310,000 compounds were called active. Inconclusive means that the source gave no clear call. Such entries were picked first, then a sample of the others. Calls come from the whole dose curve; as a rule, active = well fitted inhibition curve with a large enough effect; inconclusive = small, poorly fitted or top-dose-only effect, or effect the other way; inactive = no such curve, though single readings can be large or run the other way. Potencies of inconclusive entries are doubtful fits and often do not repeat.

Amino acid sequences for entries named in this document (tags omitted). A change or cut given only in a name is not applied to a line headed by its entry.
UniProt P51450: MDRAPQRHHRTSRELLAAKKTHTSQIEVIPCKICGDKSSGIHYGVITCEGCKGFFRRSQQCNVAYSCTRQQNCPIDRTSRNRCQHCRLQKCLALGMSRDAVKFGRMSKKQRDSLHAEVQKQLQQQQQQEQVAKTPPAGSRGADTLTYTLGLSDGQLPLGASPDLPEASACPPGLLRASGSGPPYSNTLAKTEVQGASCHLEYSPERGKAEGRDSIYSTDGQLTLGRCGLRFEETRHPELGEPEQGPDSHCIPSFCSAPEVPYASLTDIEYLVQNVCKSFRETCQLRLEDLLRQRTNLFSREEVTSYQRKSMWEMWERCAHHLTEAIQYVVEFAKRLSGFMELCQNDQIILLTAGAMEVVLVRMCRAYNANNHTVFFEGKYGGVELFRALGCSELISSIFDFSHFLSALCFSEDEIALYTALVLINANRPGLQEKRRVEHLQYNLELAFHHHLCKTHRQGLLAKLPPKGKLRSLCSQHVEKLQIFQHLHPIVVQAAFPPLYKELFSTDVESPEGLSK

These compounds were tested against Nuclear receptor ROR-gamma (Mus musculus) (UniProt P51450) (assay: qHTS for inhibitors of ROR gamma transcriptional activity). Conditions: Drosophila S2 Gal4-RORgamma UAS-luciferase reporter, 20 h; activity change, negative = inhibition: at 53.6 µM (top of the series).
Outline: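 Stable Schneider cell line, Gal4 DNA-binding domain fused to ROR gamma, UAS-luciferase. Cmpd 1 hr RT → CuSO4 700 uM final → 20 hr RT → luciferase reagent 10 min → luminescence.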
% is set by controls: 0 for no effect and ±100 for the full control effect; potency is the fitted concentration of half-maximal effect.
Note: nearly all actives have a fitted effect of over 60% in size.

Potency, inactive:
COCC(C)NC(=O)NC(=O)c1ccc(Cl)cc1 (stereo not given)
CCOC(=O)c1ccc(NC(=O)Cn2nnc(-c3ccc(C)cc3)n2)cc1
COc1cccc([C@@H]2Oc3ccc(Br)cc3C(=O)[C@H]2OC(=O)N[C@H]2CCCc3ccccc32)c1
CC1CN(C(=O)Cn2c(=O)oc3ccccc32)CC(C)O1 (stereo not given)
COC(=O)c1cc(S(=O)(=O)N2CCC(c3cc(OC)ccc3OC)C2)c[nH]1 (stereo not given)
CC(C)[C@H](NC(=O)[C@H](Cc1ccccc1)n1c(=O)[nH]c2ccccc2c1=O)C(=O)N1CCC[C@H]1C(=O)O
CC(C)NS(=O)(=O)c1ccc(NC(=S)NC(=O)c2cccc([N+](=O)[O-])c2)cc1
COc1ccc(C(=O)NC(C(=O)NCc2ccccc2OC)C(C)C)cc1 (stereo not given)
CC(=O)Nc1ccc(S(=O)(=O)N2CCN(CC(=O)N3CCOCC3)CC2)cc1
Cc1cccc(N2CCN(c3ccc(NC(=O)/C=C\C(=O)O)cc3)CC2)c1
O=[N+]([O-])c1cc2c(cc1[N+](=O)[O-])OCCOCCOCCOCCO2
Fc1ccc(-c2cn3cc(C(F)(F)F)cc(Cl)c3n2)cc1
CN(C)c1ccc(-c2cncnc2Nc2ccccc2)cc1
OCC1OC(n2cnc3c(NCc4ccco4)ncnc32)C(O)C1O (stereo not given)

Potency, active:
CCc1c(C)sc(NC(=S)N2CC(C)OC(C)C2)c1C(=O)OC (stereo not given) 7.08 µM
COc1ccc(C(=O)NC(=S)N2CCC(C)CC2)cc1 1.41 µM
COc1ccc(-c2nc3ccccc3c(=O)n2O)cc1 12.6 µM
C/C(=N\NC(=S)NC1CCCCC1)c1c(F)cccc1F 0.631 µM
Cc1cc(/C=C2/NC(=O)NC2=O)c(C)n1-c1sc2c(c1C#N)CCCC2 11.2 µM
O=C(Nc1ccc(NC(=O)c2cccs2)cn1)c1ccco1 11.2 µM
Cc1ccc(/C=N\NC(=O)c2cncc(Br)c2)o1 5.01 µM
C=CCNC(=S)N/N=C(\C)c1cccc(NC(C)=O)c1 3.55 µM
C/C(=N\Nc1nc(-c2ccccn2)nc2ccccc12)c1ccc(F)cc1 0.126 µM
CC1=NN(C(=O)c2ccccc2C)C(O)(c2ccc(Cl)cc2)C1 (stereo not given) 6.31 µM
CCCCn1c(=O)c2ccccc2n2c(=S)[nH]nc12 10 µM
CCOC(=O)CSc1nnc([C@H](CC(C)C)NC(=O)OC(C)(C)C)o1 12.6 µM
CCOC(=O)N1N=C(c2ccc(C)cc2)CC1(O)C(F)(F)F (stereo not given) 6.31 µM

Potency, inconclusive:
CC(C)(C)c1ccc(C(=O)N2CCCC2c2cccs2)cc1 (stereo not given) 22.4 µM [activator, single point]
OC1C=C2CCN3Cc4cc5c(cc4C(C1O)C23)OCO5 (stereo not given) 11.2 µM [inhibitor, single point]
Cc1ccc(CNc2c(C=O)c(=O)[nH]c3ccccc23)cc1 14.1 µM [activator, partial curve]
Clc1ccc(OCCCn2cncn2)cc1Cl 35.5 µM [activator, single point]
O=C(Nc1ccc2c(c1)OCO2)Nc1ccc(F)cc1F 2 µM [activator, partial curve, poor fit]
CCC(Oc1ccccc1)C(=O)Nc1ccc(-c2nnc(-c3ccco3)o2)cc1 (stereo not given) 11.2 µM [activator, single point]
Cc1ccc(-c2noc(CCC(=O)Nc3cccc(C#N)c3)n2)cc1 17.8 µM [inhibitor, single point]
CC(=O)Nc1ccc(-c2csc(Nc3cccc(C)n3)n2)cc1 20 µM [activator, partial curve]
CCOc1ccc(/C=C/C(=O)c2c(O)cc(C)oc2=O)cc1 35.5 µM [inhibitor, single point]
OC(COc1ccc2c(c1)CCC2)CN1CCN(c2cccc(Cl)c2)CC1 (stereo not given) 35.5 µM [inhibitor, single point]
Cc1cccc(/C=C2\Sc3ccc(C(=O)N4CCCCC4)cc3N(C)C2=O)c1 12.6 µM [activator, single point]
O=C(Nc1ccccc1)Nc1cc([N+](=O)[O-])ccc1F 35.5 µM [activator, single point]
O=C(c1cc(C(=O)N2CCN(c3ccc(F)cc3)CC2)cc([N+](=O)[O-])c1)N1CCN(c2ccc(F)cc2)CC1 22.4 µM [activator, single point]
O=C(NCC(c1cccs1)N1CCOCC1)c1ccccc1NS(=O)(=O)c1ccc(Br)cc1 (stereo not given) 22.4 µM [activator, single point]
O=C(CCC1CCCCC1)Nc1nnc(C(F)(F)F)s1 10 µM [activator, partial curve]
C/C(=N\OC(=O)NC1CCCCC1)c1sc(-c2ccccc2)nc1C 15.8 µM [activator, single point]
CC(=O)c1ccc(OCC(C)Oc2ccc(C#N)cc2)cc1 (stereo not given) 11.2 µM [activator, single point]
Cc1cccc(Oc2cc(NC(=O)Cn3cnc([N+](=O)[O-])n3)cc([N+](=O)[O-])c2)c1 22.4 µM [inhibitor, single point]
Cc1ccc(O)c(CNc2nc3ccccc3n2C)c1 14.1 µM [activator, single point]
CCN(CC)CCOc1ccc(/C(=C(/Cl)c2ccccc2)c2ccccc2)cc1 20 µM [inhibitor, single point]
Cn1nccc1C(=O)Oc1ccc(/C=N/NC(=O)c2ccccc2O)cc1 35.5 µM [inhibitor, single point]
CCOC(=O)c1c(C)oc(NC(=O)CCl)c1C(=O)OCC 10 µM [inhibitor, partial curve]
Cc1cccc(CSc2nc3nc(C)cc(C)n3n2)c1 20 µM [activator, single point]
CC(C)(C)n1nnnc1C(c1cccs1)N(Cc1ccc(Cl)cc1)CC1CCCO1 (stereo not given) 17.8 µM [inhibitor, single point]
Cc1nn(C(C)C(=O)N2CCc3ccccc3C2)c(=O)c2cc3occc3n12 (stereo not given) 6.31 µM [activator, single point]
Cc1ccc(Nc2nc(CSc3nnnn3-c3ccccc3)cs2)cc1 35.5 µM [inhibitor, single point]
N#C/C(=C\c1ccc(N2CCOCC2)c([N+](=O)[O-])c1)c1nc2ccccc2[nH]1 1.58 µM [activator, full curve]
CCc1cccc(CC)c1NC(=S)NCC(c1cccnc1)N1CCOCC1 (stereo not given) 12.6 µM [inhibitor, partial curve, poor fit]
COc1ccc([C@@H]2[C@@H]3C(=O)N(C(C)(C)C)C(=O)[C@@H]3[C@]3(Cc4ccc(Cl)cc4)C(=O)N(c4ccc(Br)cc4)C(=O)N23)cc1 7.08 µM [activator, partial curve]
COc1ccc(C2=Nn3c(nnc3-c3ccccc3O)SC2)cc1 35.5 µM [inhibitor, single point]
Cn1c(NC(=O)c2cc(Br)ccc2Cl)cc(=O)n(C)c1=O 8.91 µM [activator, partial curve]
Cc1nnc(N2C(=O)c3oc4ccccc4c(=O)c3C2c2ccco2)s1 (stereo not given) 35.5 µM [inhibitor, single point]
Nc1nc(SCc2ccccc2)[nH]c(=O)c1-c1ccccc1 3.16 µM [activator, partial curve, poor fit]
O=[N+]([O-])c1cccc(CN(CCO)Cc2ccccc2)c1 25.1 µM [activator, single point]
O=C(Nc1nnc(S(=O)(=O)N2CCCCC2)s1)c1cccc(Br)c1 12.6 µM [activator, single point]
COc1ccccc1NC(=S)N1CCN(c2ccc(F)cc2)CC1 20 µM [inhibitor, single point]
CN(C)CCNC(=O)c1ccc2c(=O)n(Cc3ccc(Cl)cc3)c(=S)[nH]c2c1 11.2 µM [inhibitor, partial curve, poor fit]
Cc1noc(C)c1-c1ccc2ncnc(N3CCN(C)CC3)c2c1 6.31 µM [inhibitor, partial curve, poor fit]
COc1ccc(-c2nnc(SCC(=O)N3c4ccccc4Sc4ccccc43)o2)cc1 0.224 µM [activator, partial curve, poor fit]
O=C(Nc1ccc2nc(-c3cccnc3)[nH]c2c1)C12CC3CC(CC(C3)C1)C2 1.12 µM [activator, full curve, poor fit]
O=c1cc(-c2ccc([N+](=O)[O-])cc2)nc2cc(-c3ccc(Cl)cc3)[nH]n12 0.794 µM [inhibitor, full curve]
COc1c(C)cc(C(=O)C2CCCN(C(=O)CCc3scnc3C)C2)cc1C (stereo not given) 6.31 µM [activator, partial curve]

As a working copy, some entries already given:
Potency, inconclusive:
O=C(c1cc(C(=O)N2CCN(c3ccc(F)cc3)CC2)cc([N+](=O)[O-])c1)N1CCN(c2ccc(F)cc2)CC1 22.4 µM [activator, single point]
O=C(NCC(c1cccs1)N1CCOCC1)c1ccccc1NS(=O)(=O)c1ccc(Br)cc1 (stereo not given) 22.4 µM [activator, single point]

Next part:

Activity change, negative = inhibition, inactive:
CCN(CC)CCOCCOC(=O)C(CC)(CC)c1ccccc1 (tested in a mixture with another compound) 1.33% [at 10 µM]
